# Experimental data: paper PMC8887472
# By UniProt entry, the sequences of proteins in these tests, tags left out.
# UniProt P0CAP2: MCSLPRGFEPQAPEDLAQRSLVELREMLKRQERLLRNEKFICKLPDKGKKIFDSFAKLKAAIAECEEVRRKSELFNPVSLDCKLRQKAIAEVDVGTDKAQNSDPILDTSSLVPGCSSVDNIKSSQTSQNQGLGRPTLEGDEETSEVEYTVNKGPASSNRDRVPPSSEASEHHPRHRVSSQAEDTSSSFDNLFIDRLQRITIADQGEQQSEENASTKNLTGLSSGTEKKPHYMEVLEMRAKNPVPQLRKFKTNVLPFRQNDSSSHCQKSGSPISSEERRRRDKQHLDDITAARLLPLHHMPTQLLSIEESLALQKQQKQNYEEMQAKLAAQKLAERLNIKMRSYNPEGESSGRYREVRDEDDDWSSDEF
# UniProt Q8IXW5: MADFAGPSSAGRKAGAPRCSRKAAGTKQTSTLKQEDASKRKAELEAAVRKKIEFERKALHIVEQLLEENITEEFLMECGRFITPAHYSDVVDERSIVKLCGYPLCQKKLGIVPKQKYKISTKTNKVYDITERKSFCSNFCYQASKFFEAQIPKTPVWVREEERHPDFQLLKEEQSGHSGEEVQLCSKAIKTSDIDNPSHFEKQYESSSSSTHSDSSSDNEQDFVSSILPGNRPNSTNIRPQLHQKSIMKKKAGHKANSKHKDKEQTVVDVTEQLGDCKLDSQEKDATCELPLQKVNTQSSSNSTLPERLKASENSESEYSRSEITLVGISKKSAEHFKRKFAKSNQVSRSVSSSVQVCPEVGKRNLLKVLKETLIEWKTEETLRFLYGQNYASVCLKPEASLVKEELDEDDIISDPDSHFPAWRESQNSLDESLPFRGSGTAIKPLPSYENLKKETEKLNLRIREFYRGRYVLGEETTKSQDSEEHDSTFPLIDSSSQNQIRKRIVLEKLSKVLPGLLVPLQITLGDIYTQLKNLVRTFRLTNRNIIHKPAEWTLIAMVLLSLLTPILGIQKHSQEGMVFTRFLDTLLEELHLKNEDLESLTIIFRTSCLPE
# No constants are given. Whether binding was seen depends on the method and setting. In cells and extracts the contact can be indirect. Some results given as binding are weak or reduced against the parent protein; the word gives no strength.
# Biological target: eGFP-TEV-Gdown1 (human (endogenous in HAP1)) (UniProt P0CAP2)
# Assay: co-IP; GFP-Trap agarose IP from clarified lysate of eGFP-TEV-Gdown1 HAP1 cells (20 mM Tris pH 7.8, 150 mM NaCl, 0.5% IGEPAL CA-360), 1 h at 4°C, three washes; silver staining and RPAP2 western blot
substance,measurement,value
RPAP2 (from UniProt Q8IXW5 1-612),binding,binds
